No constants are given. Whether binding was seen depends on the method and setting. For some of these results: Binding seen in cells or lysates may run through a third protein. Some results given as binding are weak or reduced against the parent protein; the word gives no strength. For some of these results: Where a sequence is shown, tags or fusion partners need not be part of it.
Columns and labels:
[1] = biological target: BAK (endogenous, MEFs) (mouse (endogenous in MEFs)) (UniProt O08734); experiment: native gel or EMSA; BN-PAGE of heavy membrane fractions of Vdac2-/- MEFs that express VDAC2 variants, solubilised with 1% digitonin after treatment with 10 nM tBID
[2] = biological target: T1, VDAC2^A172C (single point mutant, HA-tagged) (mouse) (UniProt Q60930); experiment: as above
T1 sequence: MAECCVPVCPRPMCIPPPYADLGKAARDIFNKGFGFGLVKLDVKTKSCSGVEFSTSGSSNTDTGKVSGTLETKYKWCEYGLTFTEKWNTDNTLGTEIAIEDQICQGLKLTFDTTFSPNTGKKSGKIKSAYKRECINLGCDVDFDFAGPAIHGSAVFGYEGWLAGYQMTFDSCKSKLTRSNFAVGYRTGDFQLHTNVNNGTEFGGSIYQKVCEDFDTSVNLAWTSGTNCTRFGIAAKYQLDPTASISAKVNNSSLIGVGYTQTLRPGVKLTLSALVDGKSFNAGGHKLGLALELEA

[3] = biological target: T2, wild-type VDAC2 (HA-VDAC2) (mouse) (UniProt Q60930); experiment: as above
T2 sequence: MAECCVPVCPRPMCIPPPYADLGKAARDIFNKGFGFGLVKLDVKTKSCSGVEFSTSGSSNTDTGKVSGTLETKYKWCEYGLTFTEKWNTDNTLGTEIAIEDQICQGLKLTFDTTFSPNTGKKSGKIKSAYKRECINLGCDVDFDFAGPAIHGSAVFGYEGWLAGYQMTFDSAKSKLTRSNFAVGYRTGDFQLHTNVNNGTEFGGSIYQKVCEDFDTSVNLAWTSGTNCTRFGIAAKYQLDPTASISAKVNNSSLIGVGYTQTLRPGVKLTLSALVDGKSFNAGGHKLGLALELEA

[4] = biological target: T3, HA-VDAC2^A172I (mouse) (UniProt Q60930); experiment: native gel or EMSA; BN-PAGE of digitonin-solubilised heavy membrane fractions of MEFs that express VDAC2 variants; immunoblot
T3 sequence: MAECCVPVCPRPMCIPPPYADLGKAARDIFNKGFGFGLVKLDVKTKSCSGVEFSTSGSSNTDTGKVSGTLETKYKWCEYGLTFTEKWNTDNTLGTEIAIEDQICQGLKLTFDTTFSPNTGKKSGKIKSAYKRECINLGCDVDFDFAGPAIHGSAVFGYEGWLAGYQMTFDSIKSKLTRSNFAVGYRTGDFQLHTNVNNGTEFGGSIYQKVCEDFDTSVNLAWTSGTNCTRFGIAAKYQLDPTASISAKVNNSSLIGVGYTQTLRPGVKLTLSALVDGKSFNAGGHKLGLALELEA

[5] = biological target: T4, HA-VDAC2^A172L (mouse) (UniProt Q60930); experiment: as above
T4 sequence: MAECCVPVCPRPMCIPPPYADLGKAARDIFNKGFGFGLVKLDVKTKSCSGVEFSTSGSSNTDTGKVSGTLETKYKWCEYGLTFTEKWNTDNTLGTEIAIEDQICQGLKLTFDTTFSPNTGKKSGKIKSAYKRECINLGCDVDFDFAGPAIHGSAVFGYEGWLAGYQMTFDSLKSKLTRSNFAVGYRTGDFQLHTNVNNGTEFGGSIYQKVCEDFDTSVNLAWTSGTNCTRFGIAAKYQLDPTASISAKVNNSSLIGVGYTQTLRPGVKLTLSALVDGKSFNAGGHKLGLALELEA

[6] = biological target: T1, VDAC2^A172C (single point mutant, HA-tagged) (mouse); experiment: as above
[7] = biological target: T2, wild-type VDAC2 (HA-VDAC2) (mouse); experiment: as above
[8] = biological target: T3, HA-VDAC2^A172I (mouse); experiment: co-IP; immunoprecipitation by the HA tag on VDAC2 from solubilised mitochondria of VDAC2-deficient MEFs that express HA-VDAC2 A172 mutants
[9] = biological target: T4, HA-VDAC2^A172L (mouse); experiment: as above
[10] = biological target: T1, VDAC2^A172C (single point mutant, HA-tagged) (mouse); experiment: as above

Measured: binding

B1: BAK (endogenous, MEFs) (protein, UniProt O08734 1-209)
chain: MASGQGPGPPKVGCDESPSPSEQQVAQDTEEVFRSYVFYLHQQEQETQGAAAPANPEMDNLPLEPNSILGQVGRQLALIGDDINRRYDTEFQNLLEQLQPTAGNAYELFTKIASSLFKSGISWGRVVALLGFGYRLALYVYQRGLTGFLGQVTCFLADIILHHYIARWIAQRGGWVAALNFRRDPILTVMVIFGVVLLGQFVVHRFFRS
binds: all assays above

Reference: publication PMC11098506
